Three molecules from article PMC7036753, “Lipidated Analogs of the LL-37-Derived Peptide Fragment KR12—Structural Analysis, Surface-Active Properties and Antimicrobial Activity” (International Journal of Molecular Sciences, 2020) can be followed below.

Each structure is given as a SMILES string. Where “and” joins values, the source holds several entries; their conditions need not be identical. Equal entries are not always repeated. Peptide text beside a SMILES is read from it. * marks the point of attachment. Myristoyl = CCCCCCCCCCCCCC(=O)*; Octanoyl = CCCCCCCC(=O)*; Bz = O=C(c1ccccc1)*

For series [1], the system named is human red blood cells (hRBCs). Kind of series: Hemolysis assay. The conditions noted are these: MHC (hRBCs) over GM of MIC against S. aureus. In kind it is cell-based. On the procedure: Then the stock RBCs solution was added up to a final volume of 100 μL with a 4% concentration of erythrocytes (v/v). The control wells for 0 and 100% hemolysis were also prepared. They consisted of RBCs suspended in PBS and 1% of Triton-X 100, respectively.

Series [2] deals with human keratinocytes (HaCaT). In kind it is cell-based. To be noted: IC50 (HaCaT) over GM of MIC against S. aureus. On the procedure:
The cytotoxicity of test compounds (IC50) was evaluated for human keratinocytes (HaCaT, ATCC) using classic MTT assay on 96-well plates. In this assay, a colorimetric determination of the cell metabolic activity was carried out. Specifically, the color intensity reflects the number of live cells that can be measured spectrophotometrically. […] A day after plating 500 cells per well, a series of concentrations (0.5–500 μg/mL) of the test compounds were added. Dimethyl sulfoxide (DMSO) was used as a control in cells at a final concentration of 1.0% (v/v), which was related to the maximal concentration of the solvent compounds used in the experiment. After 24 h of incubation with test compounds, a medium containing 1 mg/mL of MTT was added up to a final concentration of 0.5 mg/mL and subsequently incubated at 37 °C for 4 h. Then, the medium was aspirated and the formazan product was solubilized with DMSO. The background absorbance at 630 nm was subtracted from that at 570 nm for each well (Epoch, BioTek Instruments, Winooski, VT, USA). Six replicates were conducted for each concentration. All experiments were repeated at least twice and the resulting IC50 values were calculated with a GraFit 7 software (v. 7.0, Erithacus, Berkley, CA, USA).

Turning to `CCCCCCCC(=O)N[C@@H](CCCCN)C(=O)N[C@@H](CCCNC(=N)N)C(=O)N[C@H](C(=O)N[C@H](C(=O)N[C@@H](CCC(N)=O)C(=O)N[C@@H](CCCNC(=N)N)C(=O)N[C@H](C(=O)N[C@@H](CCCCN)C(=O)N[C@@H](CC(=O)O)C(=O)N[C@@H](Cc1ccccc1)C(=O)N[C@@H](CC(C)C)C(=O)N[C@@H](CCCNC(=N)N)C(N)=O)[C@@H](C)CC)C(C)C)[C@@H](C)CC` [IV, C8-KR12-NH2] (Octanoyl-KRIVQRIKDFLR-NH2), in series [1], the “Selectivity Index (SI) MHC/GM” value was ~28 and 27.83. The “Selectivity Index (SI) IC50/GM” value in series [2] came to 1.41.

In the case of `CCCCCCCCCCCCCC(=O)N[C@@H](CCCCN)C(=O)N[C@@H](CCCNC(=N)N)C(=O)N[C@H](C(=O)N[C@H](C(=O)N[C@@H](CCC(N)=O)C(=O)N[C@@H](CCCNC(=N)N)C(=O)N[C@H](C(=O)N[C@@H](CCCCN)C(=O)N[C@@H](CC(=O)O)C(=O)N[C@@H](Cc1ccccc1)C(=O)N[C@@H](CC(C)C)C(=O)N[C@@H](CCCNC(=N)N)C(N)=O)[C@@H](C)CC)C(C)C)[C@@H](C)CC` [VII, C14-KR12-NH2] (Myristoyl-KRIVQRIKDFLR-NH2), the “Selectivity Index (SI) MHC/GM” value in series [1] is given as 0.06. For the same molecule, the “Selectivity Index (SI) IC50/GM” value in series [2] is recorded as 0.02.

Take `CC[C@H](C)[C@H](NC(=O)[C@H](CCCNC(=N)N)NC(=O)[C@H](CCC(N)=O)NC(=O)[C@@H](NC(=O)[C@@H](NC(=O)[C@H](CCCNC(=N)N)NC(=O)[C@H](CCCCN)NC(=O)c1ccccc1)[C@@H](C)CC)C(C)C)C(=O)N[C@@H](CCCCN)C(=O)N[C@@H](CC(=O)O)C(=O)N[C@@H](Cc1ccccc1)C(=O)N[C@@H](CC(C)C)C(=O)N[C@@H](CCCNC(=N)N)C(N)=O` [VIII, Benzoic acid-KR12-NH2] (Bz-KRIVQRIKDFLR-NH2): the “Selectivity Index (SI) IC50/GM” value in series [2] was determined as 2.20.
